In PubChem BioAssay AID2685 (National Center for Advancing Translational Sciences (NCATS), 2010):
Some of the results follow. Shown are side measurements of this screen, not its main read-out; they come without a call. The list favours compounds with an active or inconclusive main result. The note in brackets gives the kind of curve behind each potency; many fits are weak.

Experiment: qHTS Assay for Lipid Storage Modulators in Drosophila S3 Cells;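 as to cell number change: cells counted by Cell Tracker Red CMTPX staining in the red channel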
Conditions: BODIPY lipid droplet fluorescence, 18-24 h; for cell number change: measured here: cell count max response, cells fed with added oleic acid
Procedure, shortened: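 Drosophila S3 cells loaded with oleic acid (400 uM, as added) and compounds at several concentrations; lipid droplets imaged by 488-nm laser-scanning cytometry, 500–530 nm intensity and object ratio to cell channel. Percent activity normalized to 20 uM Triacsin C.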

[1] = measured here: lipid fluorescence (Fed channel) AC50, cells fed with added oleic acid
[2] = measured here: cell number channel AC50, cells fed with added oleic acid

Compound	cell number change [%]	AC50 [1]	AC50 [2]
Cc1ccc(NC(=O)Cc2nnc(SCC(=O)Nc3ccccc3)n2C)cc1	7.83	14.6 µM [rising, single point]	
C#CCOc1ccc(/C=N/NC(=O)c2cccnc2)cc1OCC	36.3		
Cc1ccc(C(=O)c2c3ccc(C(F)(F)F)cc3[n+]([O-])n2CCCN)cc1	-32.2	32.6 µM [falling, single point]	10.3 µM [falling, single point]
O=C(CSc1ccc(-c2ccccc2)nn1)NCc1ccco1	-33		9.2 µM [falling, partial curve]
COc1cc(/C=N/OCC(=O)Nc2ccc(OC(F)F)cc2)ccc1OCc1ccccc1	27.3	2.91 µM [falling, single point]	0.82 µM [rising, full curve]
COCc1c(C(=O)NCC2COc3ccccc3O2)oc2ccccc12 (centres undefined)	20.6	13 µM [rising, partial curve]	
Cc1ccc(S(=O)(=O)NC2c3cccc4cccc(c34)C2Sc2ncccn2)cc1 (centres undefined)	-11.3	29.1 µM [falling, single point]	
N#Cc1c(N)c(C(=O)c2ccccc2)n2c1CCCC2			0.291 µM [rising, single point]
CC1CCC(C(C)C)C(OC(=O)C[n+]2cc(-c3ccc(Cl)cc3)n3c2CCCCC3)C1 (centres undefined)	-65.9	29.1 µM [falling, partial curve, poor fit]	1.64 µM [falling, partial curve, poor fit]
COCCn1c(SCC(=O)Nc2ccc3c(c2)CCC3)nc2ccccc2c1=O	-31.4		18.4 µM [falling, single point]
C/C(=N\NC(=O)CC#N)c1cc2ccccc2oc1=O		5.17 µM [rising, partial curve]	6.51 µM [rising, single point]
NC(=O)N/N=C/c1c(F)c(F)c(F)c(F)c1F	-25.2	6.51 µM [falling, single point]	
Cc1ccc(C2=NC(C(F)(F)F)(C(F)(F)F)c3c(n(-c4ccc(F)cc4)c(=O)[nH]c3=O)N2)cc1	-16.7	32.6 µM [falling, single point]	
O=C1CC(c2ccc(Cl)cc2)c2c(O)cc(O)cc2O1 (centres undefined)	-10	0.0517 µM [rising, full curve, poor fit]	
Cc1c(C(=O)NNC(=O)c2ccncc2)oc2ccccc12	22.4	9.2 µM [rising, partial curve, poor fit]	
CCN(Cc1cc2ccccc2[nH]c1=O)C(=O)C(C)C	1.51	6.51 µM [rising, single point]	
COc1ccc(OC)c(C(=O)c2coc3ccc(O)c(CN4CCOCC4)c23)c1		0.58 µM [falling, full curve]	
CCCS(=O)(=O)N1CCCC(C(=O)NCc2ccco2)C1 (centres undefined)	11.8		
CC(=O)N1N=C(c2ccncc2)OC12CCCCC2	16.8	18.4 µM [rising, single point]	
CN(CC(=O)N1CCN(c2ccccc2)CC1)C1CCCc2ccccc21 (centres undefined)	26.6		

Compound	cell number change [%]	AC50 [1]	AC50 [2]
O=C(CN1CCN(c2ccccc2F)CC1)c1ccc2c(c1)OCO2	6.13	2.59 µM [rising, full curve]	
O=c1cc(O)c(-c2cccc(C(F)(F)F)c2)c(Cl)[nH]1			0.116 µM [falling, full curve, poor fit]
COc1ccc(-c2nnc(SCC#CCO)o2)cc1OC	18.6	2.06 µM [rising, partial curve]	2.06 µM [rising, partial curve]
C=CCN(C(=O)CCS(=O)(=O)c1cccc2nsnc12)c1ccccc1	-5.42	5.8 µM [falling, partial curve]	
CC(=O)N1CCC2(CC1)C/C(=N\NC(=S)Nc1ccc(C)cc1)c1cc(O)ccc1O2	41.8	0.517 µM [rising, full curve]	
Cc1cccc(CC(=O)N2CCN(C(=O)c3ccco3)CC2)c1	0.829		
NC(=O)c1ccc(NC(=O)CSc2nnc(-c3ccncc3)n2Cc2ccco2)cc1		20.6 µM [falling, partial curve, poor fit]	
O=C(N/N=C/c1nn(-c2ccccc2)cc1-c1ccccc1)c1ccncc1	2.3	7.31 µM [rising, partial curve]	0.116 µM [falling, full curve, poor fit]
CC(=O)c1ccc(N2CCN(CN3C(=O)CC4(CCCC4)C3=O)CC2)c(F)c1	3.6		
CCc1nc(Nc2cccc(F)c2)c2oc3ccccc3c2n1	20.3	2.06 µM [rising, single point]	
Cc1ccc(S(=O)(=O)N2CCN(CC(=O)NC3CCCc4ccccc43)CC2)c(C)c1 (centres undefined)	38.3	6.51 µM [falling, single point]	29.1 µM [rising, single point]
CC1CCCCC1NC(=O)c1nn(C)c2c1CS(=O)(=O)c1ccccc1-2 (centres undefined)	7.16	29.1 µM [falling, single point]	
O=c1c2ccccc2nc(-c2ccccc2)n1Cc1ccc(Cl)cc1	20.9	2.31 µM [rising, full curve]	
CCc1[nH]nc(C(=O)N/N=C/c2ccncc2)c1C	17.3	29.1 µM [rising, single point]	
CCOc1ccc(C(=O)CC(NCc2cccs2)C(=O)O)cc1 (centres undefined)	-2.58	0.0058 µM [falling, full curve, poor fit]	
CN(C)S(=O)(=O)Oc1ccccc1C(=O)Nc1ccc(F)cc1	-14	0.259 µM [falling, full curve, poor fit]	
O=C(CCl)N(CCc1ccccc1)CCc1ccccc1	13.2		
O=C(NCCc1ccccc1)C1CCN(S(=O)(=O)N2CCC3(CC2)OCCO3)CC1	52.2		1.16 µM [rising, full curve]
COc1cccc(NC(=O)CN(C)S(=O)(=O)c2ccc3c(c2)NC(=O)CS3)c1	-31.2		32.6 µM [falling, single point]

Molecules shown so far with a cyano group, in the order listed:
Compound	cell number change [%]	AC50 [1]	AC50 [2]
N#Cc1c(N)c(C(=O)c2ccccc2)n2c1CCCC2			0.291 µM [rising, single point]
C/C(=N\NC(=O)CC#N)c1cc2ccccc2oc1=O		5.17 µM [rising, partial curve]	6.51 µM [rising, single point]
